From patent US9926581B2, “Fagopyritol synthase genes and uses thereof” (Cornell Research Foundation, Inc., priority 2002, dated 2018)

System: soybean explants
Assay: Soybean explant feeding 3 days with 50 mM cyclitol in 1% sucrose, slow drying time course, soluble carbohydrates in axis, cotyledon, seed coat and leaf
[1] = 3 days transport of sucrose (1%) and D-pinitol (50 mM), after 2 days slow drying, Rep 2
[2] = 3 days transport of sucrose (1%) and D-pinitol (50 mM), after 4 days slow drying, Rep 1
[3] = 3 days transport of sucrose (1%) and D-pinitol (50 mM), after 4 days slow drying, Rep 2
[4] = 3 days transport of sucrose (1%) and D-pinitol (50 mM), after 14 days slow drying, Rep 1
[5] = 3 days transport of sucrose (1%) and D-pinitol (50 mM), after 14 days slow drying, Rep 2
[6] = 3 days transport of sucrose (1%) and D-pinitol (50 mM), before slow drying, Rep 1
[7] = 3 days transport of sucrose (1%) and D-pinitol (50 mM), before slow drying, Rep 2
[8] = 3 days transport of sucrose (1%) and myo-inositol (50 mM), after 2 days slow drying, Rep 1
[9] = 3 days transport of sucrose (1%) and myo-inositol (50 mM), after 2 days slow drying, Rep 2
[10] = 3 days transport of sucrose (1%) and myo-inositol (50 mM), after 4 days slow drying, Rep 1
[11] = 3 days transport of sucrose (1%) and myo-inositol (50 mM), after 4 days slow drying, Rep 2
[12] = 3 days transport of sucrose (1%) and myo-inositol (50 mM), after 14 days slow drying, Rep 1
[13] = 3 days transport of sucrose (1%) and myo-inositol (50 mM), after 14 days slow drying, Rep 2
[14] = 3 days transport of sucrose (1%) and myo-inositol (50 mM), before slow drying, Rep 1
[15] = 3 days transport of sucrose (1%) and myo-inositol (50 mM), before slow drying, Rep 2
[16] = 3 days transport of sucrose (1%) without cyclitols, after 2 days slow drying, Rep 1
[17] = 3 days transport of sucrose (1%) without cyclitols, after 2 days slow drying, Rep 2
[18] = 3 days transport of sucrose (1%) without cyclitols, after 4 days slow drying, Rep 1
[19] = 3 days transport of sucrose (1%) without cyclitols, after 4 days slow drying, Rep 2
[20] = 3 days transport of sucrose (1%) without cyclitols, after 14 days slow drying, Rep 1
[21] = 3 days transport of sucrose (1%) without cyclitols, after 14 days slow drying, Rep 2
[22] = 3 days transport of sucrose (1%) without cyclitols, before slow drying, Rep 1
[23] = 3 days transport of sucrose (1%) without cyclitols, before slow drying, Rep 2

CO[C@H]1[C@H](O)[C@@H](O)[C@@H](O)[C@H](O)[C@@H]1O [D-Pinitol, 1D-3-O-methyl-chiro-inositol, reference compound]
Accumulation of soluble carbohydrates in soybean cotyledon [1]: 431.73 μg/cotyledon
Accumulation of soluble carbohydrates in soybean seed coat [1]: 73.32 μg/seed coat
Accumulation of soluble carbohydrates in soybean axis [2]: 14.00 μg/axis
Accumulation of soluble carbohydrates in soybean cotyledon [2]: 472.26 μg/cotyledon
Accumulation of soluble carbohydrates in soybean seed coat [2]: 58.50 μg/seed coat
Accumulation of soluble carbohydrates in soybean axis [3]: 20.05 μg/axis
Accumulation of soluble carbohydrates in soybean cotyledon [3]: 438.53 μg/cotyledon
Accumulation of soluble carbohydrates in soybean seed coat [3]: 90.19 μg/seed coat
Accumulation of soluble carbohydrates in soybean axis [4]: 26.07 μg/axis
Accumulation of soluble carbohydrates in soybean cotyledon [4]: 160.89 μg/cotyledon
Accumulation of soluble carbohydrates in soybean seed coat [4]: 50.78 μg/seed coat
Accumulation of soluble carbohydrates in soybean axis [5]: 56.18 μg/axis
Accumulation of soluble carbohydrates in soybean cotyledon [5]: 303.14 μg/cotyledon
Accumulation of soluble carbohydrates in soybean seed coat [5]: 96.60 μg/seed coat
Accumulation of soluble carbohydrates in soybean axis [6]: 16.89 μg/axis
Accumulation of soluble carbohydrates in soybean cotyledon [6]: 351.23 μg/cotyledon
Accumulation of soluble carbohydrates in soybean axis [7]: 18.34 μg/axis
Accumulation of soluble carbohydrates in soybean cotyledon [7]: 497.66 μg/cotyledon
Accumulation of soluble carbohydrates in soybean axis [8]: 5.05 μg/axis
Accumulation of soluble carbohydrates in soybean cotyledons [8]: 121.52 μg/cotyledon
Accumulation of soluble carbohydrates in soybean seed coats [8]: 11.24 μg/seed coat
Accumulation of soluble carbohydrates in soybean axis [9]: 5.72 μg/axis
Accumulation of soluble carbohydrates in soybean cotyledons [9]: 132.23 μg/cotyledon
Accumulation of soluble carbohydrates in soybean seed coats [9]: 9.35 μg/seed coat
Accumulation of soluble carbohydrates in soybean axis [10]: 2.74 μg/axis
Accumulation of soluble carbohydrates in soybean cotyledons [10]: 101.97 μg/cotyledon
Accumulation of soluble carbohydrates in soybean axis [11]: 2.86 μg/axis
Accumulation of soluble carbohydrates in soybean cotyledons [11]: 128.68 μg/cotyledon
Accumulation of soluble carbohydrates in soybean seed coats [11]: 6.81 μg/seed coat
Accumulation of soluble carbohydrates in soybean axis [12]: 6.70 μg/axis
Accumulation of soluble carbohydrates in soybean cotyledons [12]: 61.67 μg/cotyledon
Accumulation of soluble carbohydrates in soybean seed coats [12]: 12.13 μg/seed coat
Accumulation of soluble carbohydrates in soybean axis [13]: 5.72 μg/axis
Accumulation of soluble carbohydrates in soybean cotyledons [13]: 95.93 μg/cotyledon
Accumulation of soluble carbohydrates in soybean seed coats [13]: 15.41 μg/seed coat
Accumulation of soluble carbohydrates in soybean axis [14]: 5.89 μg/axis
Accumulation of soluble carbohydrates in soybean cotyledons [14]: 99.88 μg/cotyledon
Accumulation of soluble carbohydrates in soybean axis [15]: 5.97 μg/axis
Accumulation of soluble carbohydrates in soybean cotyledons [15]: 127.21 μg/cotyledon
Accumulation of soluble carbohydrates in soybean axis [16]: 7.28 μg/axis
Accumulation of soluble carbohydrates in soybean cotyledon [16]: 162.30 μg/cotyledon
Accumulation of soluble carbohydrates in soybean seed coats [16]: 16.22 μg/seed coat
Accumulation of soluble carbohydrates in soybean axis [17]: 10.54 μg/axis
Accumulation of soluble carbohydrates in soybean cotyledon [17]: 222.80 μg/cotyledon
Accumulation of soluble carbohydrates in soybean seed coats [17]: 12.15 μg/seed coat
Accumulation of soluble carbohydrates in soybean axis [18]: 4.24 μg/axis
Accumulation of soluble carbohydrates in soybean cotyledon [18]: 187.65 μg/cotyledon
Accumulation of soluble carbohydrates in soybean seed coats [18]: 20.16 μg/seed coat
Accumulation of soluble carbohydrates in soybean axis [19]: 4.89 μg/axis
Accumulation of soluble carbohydrates in soybean cotyledon [19]: 166.14 μg/cotyledon
Accumulation of soluble carbohydrates in soybean seed coats [19]: 19.36 μg/seed coat
Accumulation of soluble carbohydrates in soybean axis [20]: 8.64 μg/axis
Accumulation of soluble carbohydrates in soybean cotyledon [20]: 98.90 μg/cotyledon
Accumulation of soluble carbohydrates in soybean seed coats [20]: 25.66 μg/seed coat
Accumulation of soluble carbohydrates in soybean axis [21]: 4.32 μg/axis
Accumulation of soluble carbohydrates in soybean cotyledon [21]: 153.50 μg/cotyledon
Accumulation of soluble carbohydrates in soybean seed coats [21]: 16.34 μg/seed coat
Accumulation of soluble carbohydrates in soybean axis [22]: 10.61 μg/axis
Accumulation of soluble carbohydrates in soybean cotyledon [22]: 199.64 μg/cotyledon
Accumulation of soluble carbohydrates in soybean axis [23]: 11.12 μg/axis
Accumulation of soluble carbohydrates in soybean cotyledon [23]: 176.34 μg/cotyledon
increase of the free cyclitol fed to explants (cotyledon tissues of dry seeds (14 days slow drying)): 2 fold
increase of the free cyclitol fed to explants (leaf tissues at 24 hours after the start of feeding): 5 fold
change after feeding myo-inositol (seed coat of dry seeds (14 days slow drying)): no increase
